From the supplement of paper PMC6289059
Some of the results follow. Repeats are few or missing, and single values can be far off.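 The cells are hepatocyte-like cells grown from human stem cells in which the DGUOK gene was disrupted by CRISPR, a model of liver mtDNA depletion syndrome. Each well's ATP signal was scored against the other wells on its plate, and a drug counted as a primary hit when its score was 3 or higher.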

Each compound was assayed on DGUOK Δ14/Δ5 iPSC-derived hepatocyte-like cells (SV20) (assay: ATP level (CellTiter-Glo luminescence) Z score relative to plate distribution, under 2-DG glycolysis block; higher = more cellular ATP (rescue of mitochondrial ATP production)). Conditions: 5 µM; treatment time: day 15 to day 20 of differentiation (5 days); 2-deoxy-D-glucose: 20 mM for 24 h before assay.

Row | SMILES | ATP level
1 | CC[C@H](C)C(=O)O[C@H]1C[C@H](O)C=C2C=C[C@H](C)[C@H](CC[C@@H](O)C[C@@H](O)CC(=O)O)[C@H]21 | inactive: 2.14
2 | CC1=C(C(=O)O)N2C(=O)[C@@H](NC(=O)[C@H](N)c3ccccc3)[C@H]2SC1 | inactive: 1.18
3 | O=C1C(O)=C(O)C(=O)C(O)=C1O | inactive: -3.95
4 | Cc1nccn1CC1CCc2c(c3ccccc3n2C)C1=O (stereo unspecified) | inactive: -0.654
5 | NC(=O)c1cc[n+](CC2=C(C(=O)[O-])N3C(=O)[C@@H](NC(=O)Cc4cccs4)[C@H]3SC2)cc1 | inactive: -0.841
6 | CC(=O)NC[C@H]1CN(c2ccc(N3CCOCC3)c(F)c2)C(=O)O1 | inactive: -4.56
7 | COc1ccc2c(c1)c(CC(=O)OCC(=O)O)c(C)n2C(=O)c1ccc(Cl)cc1 | inactive: 2.47
8 | COc1ccc2cc3[n+](cc2c1OC)CCc1cc2c(cc1-3)OCO2 | inactive: -9.11
9 | COc1ccc2c(c1)OC[C@@H](Cc1ccc(OC)c(OC)c1)[C@@H]2O | inactive: -0.292
10 | O=C(c1cccnc1)N1CCOCC1 | inactive: 1.01
11 | OCC(S)CS (stereo unspecified) | inactive: -10
12 | CC(C)=CC1C(C(=O)O)C1(C)C (stereo unspecified) | inactive: 1.99
13 | COC(=O)C[C@H]1C(C)(C)C(=O)[C@@H]2CC3C4=CC(=O)O[C@@H](c5ccoc5)[C@]4(C)CC[C@@H]3[C@@]1(C)C2=O (stereo partly specified) | inactive: -2.7
14 | CC(C)Cn1c(=O)n(C)c(=O)c2nc[nH]c21 | inactive: 0.658
15 | O=C1N=C(O)NC1(c1ccccc1)c1ccccc1 | inactive: 1.45
16 | CC1(C)O[C@@H]2[C@@H](CO[C@@]3(COS(N)(=O)=O)OC(C)(C)O[C@@H]23)O1 | inactive: -1.49
17 | COc1cc(NS(=O)(=O)c2ccc(N)cc2)nc(OC)n1 | inactive: 1.69
18 | CC[N+](CC)(CC(=O)Nc1c(C)cccc1C)Cc1ccccc1 | active: 5.63
19 | CC(=O)O[C@@H]1CC[C@@]2(C)C(C[C@@H](OC(C)=O)[C@@]3(C)C4=CC(=O)O[C@@H](c5ccoc5)[C@]4(C)CCC23)C1(C)C (stereo partly drawn) [3alpha-ACETOXYDIHYDRODEOXYGEDUNIN] | inactive: 2.37
20 | Cc1cccc(Nc2ccncc2S(=O)(=O)NC(=O)NC(C)C)c1 | inactive: -4.94
21 | O=C(O)CCCC[C@@H]1CCSS1 | inactive: 1.16
22 | CC(=O)O[C@H]1C[C@@H](O)C(C)(C)[C@@H]2C[C@@H](OC(C)=O)[C@]3(C)[C@H](CC[C@@]4(C)[C@@H](c5ccoc5)OC(=O)[C@H]5O[C@@]534)[C@@]12C | inactive: -2.72
23 | CC(C)CCC[C@@H](C)[C@H]1CC[C@H]2[C@@H]3CC[C@H]4CC(=O)CC[C@]4(C)[C@H]3CC[C@]12C | inactive: -0.711
24 | C=C(C)[C@H]1COc2cc3oc(=O)ccc3cc2O1 | inactive: 2.07
25 | NC(=O)N1c2ccccc2CC(=O)c2ccccc21 | inactive: -0.0651
26 | O=C(C=Cc1ccc(O)cc1)c1ccccc1O | inactive: 0.68

Row | SMILES | ATP level
27 | COc1cc2oc3cc(OC)c(OC)c(CC=C(C)C)c3c(=O)c2c(O)c1CC=C(C)C | inactive: -0.876
28 | CC(C)Cn1cnc2c(N)nc3ccccc3c21 | inactive: -2.04
29 | CC(=O)OCC(=O)[C@@]1(O)[C@H](OC(C)=O)C[C@H]2[C@@H]3CCC4=CC(=O)C=C[C@]4(C)[C@@]3(F)[C@@H](O)C[C@@]21C | inactive: 1.51
30 | O=C1OC(=O)[C@H]2[C@@H]1[C@@H]1CC[C@H]2O1 | inactive: 2.19
31 | C[C@]12CCC3c4ccc(OS(=O)(=O)O)cc4CCC3C1CC[C@H]2O (stereo partly specified) | inactive: 1.68
32 | CC(C)NC(=N)NC(=N)Nc1ccc(Cl)cc1 | inactive: 1.22
33 | COc1ccc2c3c1O[C@H]1C[C@@H](O)C=C[C@@]31CCN(C)C2 | inactive: -0.581
34 | CCCC(=O)O[C@]1(C(=O)CO)CC[C@H]2[C@@H]3CCC4=CC(=O)CC[C@]4(C)[C@H]3[C@@H](O)C[C@@]21C | inactive: 1.73
35 | CC1(C)S[C@@H]2[C@H](NC(=O)COc3ccccc3)C(=O)N2[C@H]1C(=O)O | inactive: 0.575
36 | Cc1nnc(SCC2=C(C(=O)O)N3C(=O)[C@@H](NC(=O)Cn4cnnn4)[C@H]3SC2)s1 | inactive: 2.28
37 | O=c1[nH]c(=O)n([C@H]2C[C@H](O)[C@@H](CO)O2)cc1C(F)(F)F | inactive: 0.296
38 | C[C@H]1O[C@@H](O[C@H]2[C@@H](O)C[C@H](O[C@H]3[C@@H](O)C[C@H](O[C@H]4CC[C@@]5(C)[C@H](CC[C@@H]6[C@@H]5CC[C@]5(C)[C@@H](C7=CC(=O)OC7)CC[C@]65O)C4)O[C@@H]3C)O[C@@H]2C)C[C@H](O)[C@@H]1O | inactive: -26.5
39 | CC(=O)CC(c1ccc([N+](=O)[O-])cc1)c1c(O)c2ccccc2oc1=O (stereo unspecified) | inactive: 1.36
40 | CCCCCCCCNC(C)C(O)c1ccc(SC(C)C)cc1 (stereo unspecified) | inactive: -14.1
41 | C=C(C)[C@@H]1CC[C@]2(C)CC[C@]3(C)[C@H](CC[C@@H]4[C@@]5(C)CC[C@H](O)C(C)(C)[C@@H]5CC[C@]43C)[C@@H]12 | inactive: 0.251
42 | S=c1[nH]cnc2nc[nH]c12 | inactive: -0.893
43 | COc1cc2c(cc1OC)[C@@H]1C(=O)c3ccc4c(c3O[C@@H]1CO2)C=CC(C)(C)O4 | inactive: -11.2
44 | CC(C)[C@@H]1CC[C@@H](C)CC1=O | inactive: 1.15
45 | NCCCCN | inactive: 0.959
46 | CC1=CC2C(CC1=O)C(C)=CCC2C(C)C (stereo unspecified) | inactive: 2.44
47 | O=C(O)C[C@H](O)C[C@H](O)/C=C/c1c(C2CC2)nc2ccccc2c1-c1ccc(F)cc1 | inactive: 0.545
48 | Cc1ccc(C)c(OCCCC(C)(C)C(=O)O)c1 | inactive: 1.23
49 | COC(=O)c1c(C)c2c(c(C)c1O)OC(=O)c1c(C)c(Cl)c(O)c(Cl)c1O2 | inactive: 2.41
50 | COc1cc2c(cc1OC)[C@@H]1Cc3ccc(OC)c(OC)c3CN1CC2 | inactive: -3.18
51 | NC(=O)c1ccc[n+]([C@@H]2O[C@H](COP(=O)([O-])OP(=O)(O)OC[C@H]3O[C@@H](n4cnc5c(N)ncnc54)[C@H](O)[C@@H]3O)[C@@H](O)[C@H]2O)c1 | active: 3.03

Copied from above: compounds 26 to 39
Row | SMILES | ATP level
26 | O=C(C=Cc1ccc(O)cc1)c1ccccc1O | inactive: 0.68
27 | COc1cc2oc3cc(OC)c(OC)c(CC=C(C)C)c3c(=O)c2c(O)c1CC=C(C)C | inactive: -0.876
28 | CC(C)Cn1cnc2c(N)nc3ccccc3c21 | inactive: -2.04
29 | CC(=O)OCC(=O)[C@@]1(O)[C@H](OC(C)=O)C[C@H]2[C@@H]3CCC4=CC(=O)C=C[C@]4(C)[C@@]3(F)[C@@H](O)C[C@@]21C | inactive: 1.51
30 | O=C1OC(=O)[C@H]2[C@@H]1[C@@H]1CC[C@H]2O1 | inactive: 2.19
31 | C[C@]12CCC3c4ccc(OS(=O)(=O)O)cc4CCC3C1CC[C@H]2O (stereo partly specified) | inactive: 1.68
32 | CC(C)NC(=N)NC(=N)Nc1ccc(Cl)cc1 | inactive: 1.22
33 | COc1ccc2c3c1O[C@H]1C[C@@H](O)C=C[C@@]31CCN(C)C2 | inactive: -0.581
34 | CCCC(=O)O[C@]1(C(=O)CO)CC[C@H]2[C@@H]3CCC4=CC(=O)CC[C@]4(C)[C@H]3[C@@H](O)C[C@@]21C | inactive: 1.73
35 | CC1(C)S[C@@H]2[C@H](NC(=O)COc3ccccc3)C(=O)N2[C@H]1C(=O)O | inactive: 0.575
36 | Cc1nnc(SCC2=C(C(=O)O)N3C(=O)[C@@H](NC(=O)Cn4cnnn4)[C@H]3SC2)s1 | inactive: 2.28
37 | O=c1[nH]c(=O)n([C@H]2C[C@H](O)[C@@H](CO)O2)cc1C(F)(F)F | inactive: 0.296
38 | C[C@H]1O[C@@H](O[C@H]2[C@@H](O)C[C@H](O[C@H]3[C@@H](O)C[C@H](O[C@H]4CC[C@@]5(C)[C@H](CC[C@@H]6[C@@H]5CC[C@]5(C)[C@@H](C7=CC(=O)OC7)CC[C@]65O)C4)O[C@@H]3C)O[C@@H]2C)C[C@H](O)[C@@H]1O | inactive: -26.5
39 | CC(=O)CC(c1ccc([N+](=O)[O-])cc1)c1c(O)c2ccccc2oc1=O (stereo unspecified) | inactive: 1.36
